In publication PMC7524730:
Results are given in words; binding and its absence hold for the method and conditions named. In cells and extracts the contact can be indirect. Some entries that bind do so weakly or less than the wild type. For some of these results: Sequences can lack the tags named with a protein.

Amino acid sequences for entries named in this document (tags omitted). Residues count along the entry.
UniProt O14744, residues 1-324: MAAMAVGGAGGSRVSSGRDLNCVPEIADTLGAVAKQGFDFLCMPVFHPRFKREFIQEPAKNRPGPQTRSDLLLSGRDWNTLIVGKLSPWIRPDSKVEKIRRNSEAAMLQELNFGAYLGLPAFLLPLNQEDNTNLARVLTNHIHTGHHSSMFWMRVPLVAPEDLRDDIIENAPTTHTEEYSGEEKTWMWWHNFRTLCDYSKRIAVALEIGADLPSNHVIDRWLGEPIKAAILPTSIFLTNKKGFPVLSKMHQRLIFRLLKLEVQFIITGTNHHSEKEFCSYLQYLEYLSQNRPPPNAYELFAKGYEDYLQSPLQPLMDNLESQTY
UniProt P28482: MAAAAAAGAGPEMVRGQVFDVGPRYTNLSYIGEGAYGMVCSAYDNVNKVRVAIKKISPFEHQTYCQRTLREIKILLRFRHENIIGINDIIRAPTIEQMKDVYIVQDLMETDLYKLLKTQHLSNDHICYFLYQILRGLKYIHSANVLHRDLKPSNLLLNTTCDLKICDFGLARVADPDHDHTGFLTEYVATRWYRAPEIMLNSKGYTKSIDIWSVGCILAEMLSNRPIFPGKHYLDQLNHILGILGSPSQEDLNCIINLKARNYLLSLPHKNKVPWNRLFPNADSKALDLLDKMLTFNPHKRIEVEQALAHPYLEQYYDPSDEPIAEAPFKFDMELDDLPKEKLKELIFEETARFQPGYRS

T1: Lymphoid-specific helicase (LSH), expressed in 293T cells (human) (UniProt Q9NRZ9)
T1 sequence: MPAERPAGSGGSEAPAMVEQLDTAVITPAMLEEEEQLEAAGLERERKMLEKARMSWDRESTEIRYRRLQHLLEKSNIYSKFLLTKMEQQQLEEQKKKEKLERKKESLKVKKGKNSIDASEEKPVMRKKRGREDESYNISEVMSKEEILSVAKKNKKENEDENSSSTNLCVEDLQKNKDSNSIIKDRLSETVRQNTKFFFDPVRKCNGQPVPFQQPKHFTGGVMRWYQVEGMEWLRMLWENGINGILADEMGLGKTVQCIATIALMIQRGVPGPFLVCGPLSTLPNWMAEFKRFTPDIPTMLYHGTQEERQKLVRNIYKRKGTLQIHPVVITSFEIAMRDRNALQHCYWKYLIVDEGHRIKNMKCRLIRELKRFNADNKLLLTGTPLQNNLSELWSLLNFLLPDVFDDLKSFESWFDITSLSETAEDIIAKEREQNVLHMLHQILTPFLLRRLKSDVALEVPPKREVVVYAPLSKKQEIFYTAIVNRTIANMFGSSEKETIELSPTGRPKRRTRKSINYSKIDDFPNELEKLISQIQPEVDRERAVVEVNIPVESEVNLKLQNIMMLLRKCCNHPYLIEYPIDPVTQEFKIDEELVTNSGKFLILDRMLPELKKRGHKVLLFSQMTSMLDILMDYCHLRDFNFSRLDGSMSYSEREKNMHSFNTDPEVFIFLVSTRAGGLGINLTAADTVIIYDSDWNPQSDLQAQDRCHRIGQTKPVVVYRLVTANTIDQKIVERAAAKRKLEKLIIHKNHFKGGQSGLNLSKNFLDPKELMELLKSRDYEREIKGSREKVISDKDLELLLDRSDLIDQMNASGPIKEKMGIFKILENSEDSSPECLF


Assays:
[1] = target: T1, Lymphoid-specific helicase (LSH), expressed in 293T cells (human); test: co-IP; Flag-tagged LSH and HA-tagged PRMT5 full-length or truncation constructs cotransfected into 293T cells; IP then IB
[2] = target: T1, Lymphoid-specific helicase (LSH), expressed in 293T cells (human); test: co-IP; IP with an anti-LSH antibody from 293T cells ectopically expressing LSH, IB with the indicated antibodies; IgG as isotype control; antibody overnight at 4 °C, Dynabeads Protein G
[3] = target: HA-tagged PRMT5 amino acids 1-324 (human) (UniProt O14744); test: co-IP; Flag-tagged LSH and HA-tagged PRMT5 full-length or truncation constructs cotransfected into 293T cells; IP then IB

binding [2] | Molecule | also measured
 | HA-tagged PRMT5 amino acids 1-324 (from UniProt O14744 1-324) (domain or fragment) | binding [1]: binds
binds | MAPK1 (from UniProt P28482 1-360) (enzyme) | 
 | Flag-tagged LSH amino acids 227-589 (domain or fragment, UniProt Q9NRZ9 227-589) QVEGMEWLRMLWENGINGILADEMGLGKTVQCIATIALMIQRGVPGPFLVCGPLSTLPNWMAEFKRFTPDIPTMLYHGTQEERQKLVRNIYKRKGTLQIHPVVITSFEIAMRDRNALQHCYWKYLIVDEGHRIKNMKCRLIRELKRFNADNKLLLTGTPLQNNLSELWSLLNFLLPDVFDDLKSFESWFDITSLSETAEDIIAKEREQNVLHMLHQILTPFLLRRLKSDVALEVPPKREVVVYAPLSKKQEIFYTAIVNRTIANMFGSSEKETIELSPTGRPKRRTRKSINYSKIDDFPNELEKLISQIQPEVDRERAVVEVNIPVESEVNLKLQNIMMLLRKCCNHPYLIEYPIDPVTQEFK | binding [3]: binds
binds | minichromosome maintenance 3 (MCM3) (protein, UniProt P25205 1-808) MAGTVVLDDVELREAQRDYLDFLDDEEDQGIYQSKVRELISDNQYRLIVNVNDLRRKNEKRANRLLNNAFEELVAFQRALKDFVASIDATYAKQYEEFYVGLEGSFGSKHVSPRTLTSCFLSCVVCVEGIVTKCSLVRPKVVRSVHYCPATKKTIERRYSDLTTLVAFPSSSVYPTKDEENNPLETEYGLSVYKDHQTITIQEMPEKAPAGQLPRSVDVILDDDLVDKAKPGDRVQVVGTYRCLPGKKGGYTSGTFRTVLIACNVKQMSKDAQPSFSAEDIAKIKKFSKTRSKDIFDQLAKSLAPSIHGHDYVKKAILCLLLGGVERDLENGSHIRGDINILLIGDPSVAKSQLLRYVLCTAPRAIPTTGRGSSGVGLTAAVTTDQETGERRLEAGAMVLADRGVVCIDEFDKMSDMDRTAIHEVMEQGRVTIAKAGIHARLNARCSVLAAANPVYGRYDQYKTPMENIGLQDSLLSRFDLLFIMLDQMDPEQDREISDHVLRMHRYRAPGEQDGDAMPLGSAVDILATDDPNFSQEDQQDTQIYEKHDNLLHGTKKKKEKMVSAAFMKKYIHVAKIIKPVLTQESATYIAEEYSRLRSQDSMSSDTARTSPVTARTLETLIRLATAHAKARMSKTVDLQDAEEAVELVQYAYFKKVLEKEKKRKKRSEDESETEDEEEKSQEDQEQKRKRRKTRQPDAKDGDSYDPYDFSDTEEEMPQVHTPKTADSQETKESQKVELSESRLKAFKVALLDVFREAHAQSIGMNRLTESINRDSEEPFSSVEIQAALSKMQDDNQVMVSEGIIFLI | 
